PubChem BioAssay AID1159584 | Peter MacCallum Cancer Centre | 2016
Assay: 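Knock-downs that harm CDH1-null cells more than parental MCF10A cells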 (primary screen). Cells: human MCF10A breast epithelial cells, parental and CDH1-null. Knock-down reagent: siRNA against human genes. Measured: 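Cell viability by CellTiter-Glo ATP luminescence, each line scaled to the mean of mock wells across plates, then CDH1-null over parental ratio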. Direction: CDH1-null / parental viability ratio: higher = CDH1-null cells survive relatively better than parental.
The deposit covers about 18,000 reagents; shown is an unselected part. Not all columns of the deposit are shown. Not stated in the record: the amount of reagent, the time to read-out.

PLVAP (GeneID 83483) scored CDH1-null / parental viability ratio 1.47.
Depletion of ZNF740 (GeneID 283337) came out at: CDH1-null / parental viability ratio 0.98.
Depletion of HMGB1 (GeneID 3146) gave: CDH1-null / parental viability ratio 0.97.
Depletion of OSGIN2 (GeneID 734) gave: CDH1-null / parental viability ratio 0.84.
After knock-down of KRT31 (GeneID 3881), the screen gave CDH1-null / parental viability ratio 1.13.
After knock-down of NOCT (GeneID 25819), the record shows CDH1-null / parental viability ratio 0.98.
After knock-down of TMEM51 (GeneID 55092), the record shows CDH1-null / parental viability ratio 1.62.
Knock-down of FOXI1 (GeneID 2299) gave: CDH1-null / parental viability ratio 1.01.
Silencing of SAE1 (GeneID 10055) gave: CDH1-null / parental viability ratio 0.92.
AIFM1 (GeneID 9131) gave CDH1-null / parental viability ratio 0.82.
With knock-down of HHATL (GeneID 57467), the record shows CDH1-null / parental viability ratio 0.93.
For RBP7 (GeneID 116362), the entry reads CDH1-null / parental viability ratio 0.9.
PRMT8 (GeneID 56341) gave CDH1-null / parental viability ratio 1.37.
With knock-down of TTC12 (GeneID 54970), the record shows CDH1-null / parental viability ratio 1.14.
With knock-down of DPF3 (GeneID 8110), the screen gave CDH1-null / parental viability ratio 0.84.
After knock-down of CYP7B1 (GeneID 9420), the screen gave CDH1-null / parental viability ratio 1.29.
After knock-down of EGLN2 (GeneID 112398), the record shows CDH1-null / parental viability ratio 0.96.
For NFX1 (GeneID 4799) the deposit lists CDH1-null / parental viability ratio 0.75.
ZNF358 (GeneID 140467) gave CDH1-null / parental viability ratio 0.98.
Against LRRC75B (GeneID 388886), the values are CDH1-null / parental viability ratio 0.91.
ZNF512 (GeneID 84450) gave CDH1-null / parental viability ratio 1.1.
Against NELL1 (GeneID 4745) the deposit lists CDH1-null / parental viability ratio 0.96.
With knock-down of NIPSNAP3A (GeneID 25934), the screen gave CDH1-null / parental viability ratio 0.91.
With knock-down of SUSD6 (GeneID 9766), the record shows CDH1-null / parental viability ratio 0.76.
PCYOX1 (GeneID 51449) gave CDH1-null / parental viability ratio 1.18.
Against MOCS1 (GeneID 4337), the entry reads CDH1-null / parental viability ratio 0.93.
With knock-down of RRP15 (GeneID 51018) the results were CDH1-null / parental viability ratio 0.85.
TULP4 (GeneID 56995) showed CDH1-null / parental viability ratio 1.
After knock-down of RNASE7 (GeneID 84659) the results were CDH1-null / parental viability ratio 0.74.
RAMP3 (GeneID 10268) showed CDH1-null / parental viability ratio 1.03.
Depletion of KLHL23 (GeneID 151230) resulted in: CDH1-null / parental viability ratio 1.12.
Against GGT7 (GeneID 2686) the deposit lists CDH1-null / parental viability ratio 1.13.
MRPS6 (GeneID 64968) showed CDH1-null / parental viability ratio 0.93.
GGA1 (GeneID 26088) showed CDH1-null / parental viability ratio 1.39.
Silencing of MUL1 (GeneID 79594) gave: CDH1-null / parental viability ratio 0.87.

Not a retest: 2 of the entries above.
ZNF358 (GeneID 140467) → CDH1-null / parental viability ratio: 0.98
LRRC75B (GeneID 388886) → CDH1-null / parental viability ratio: 0.91
